A short description of this experiment: qHTS Assay for Lipid Storage Modulators in Drosophila S3 Cells.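 On cell number change: cells counted by Cell Tracker Red CMTPX staining in the red channel.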 To be noted: BODIPY lipid droplet fluorescence, 18-24 h; for cell number change: measured here: cell count max response, cells fed with added oleic acid. Summed up: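 Drosophila S3 cells got compounds at several concentrations plus oleic acid (400 uM solution). Laser-scanning cytometry with 488 nm excitation read lipid droplets at 500-530 nm and cells at 575-640 nm. Percent activity was relative to 20 uM Triacsin C.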

The mark [1] stands for this setting: measured here: lipid fluorescence (Fed channel) AC50, cells fed with added oleic acid.
[2] abbreviates: measured here: cell number channel AC50, cells fed with added oleic acid.

Among the data in PubChem BioAssay AID2685 (National Center for Advancing Translational Sciences (NCATS), 2010) are cell number change and AC50 values, retold here.

The list shows a part of the results. Further columns of the screen follow, without active or inactive calls. Most of these compounds were active or inconclusive in the main read-out, so they are no random draw. Words in brackets tell the shape of the fitted curve; partial curves, single points and poor fits give uncertain potencies.

On to `O=C(NCC1CCCO1)C(=O)NCC1CCCN1S(=O)(=O)c1ccccc1` (stereo not drawn), for which the cell number change is -2.45%. In addition, under setting [1], the AC50 is 0.164 µM [falling, full curve].
Take `Cc1cc(C)c2cc(CN(CCO)C(=O)NC3CCCCC3)c(=O)[nH]c2c1`: the cell number change amounted to 11.2%. For the same compound, the AC50 under setting [1] is 3.66 µM [rising, single point].
On to `O=C(O)c1ccc(Nc2nc3ccc(Cl)cc3[nH]2)cc1`, for which the cell number change is 32.3%. Under setting [2], the AC50 was 29.1 µM [rising, single point].
As to `O=C(CCc1nc(-c2ccccc2)no1)NC1CCCCC1`, the cell number change was 51.9%. Also, under setting [2], the concentration at half-maximal activity (AC50) was 16.4 µM [rising, partial curve]. Also, the AC50 under setting [1] was 23.1 µM [rising, partial curve].
`Cc1ccc(C(=O)NCC(=O)OCC(=O)NC2CCS(=O)(=O)C2)cc1C` (stereo not drawn): the cell number change was 13.9%. The half-maximal activity concentration (AC50) under setting [2] was 0.731 µM [falling, single point].
On to `O=C(CN1CC(=O)Oc2ccccc21)OCC(=O)c1cccc(Br)c1`, for which the cell number change was 16.5%. Besides, under setting [1], the AC50 was 5.8 µM [rising, partial curve, poor fit].
Consider `CC(=O)Nc1ccc(S(=O)(=O)NCCC(=O)N2CCN(C(c3ccccc3)c3ccccc3)CC2)cc1`, for which the cell number change is 39.9%. In addition, under setting [2], the AC50 is 8.2 µM [rising, partial curve, poor fit]. For the same compound, the AC50 under setting [1] was 20.6 µM [rising, single point].
In the case of `C/C(=N\NC(=O)c1ccccc1C)c1ccc(N2CCOCC2)cc1`, the cell number change amounted to 33.2%. Besides, the AC50 under setting [2] is 1.64 µM [rising, partial curve].
For the compound `Cc1cc([N+](=O)[O-])ccc1NC(=O)C(C)NC1CCCCC1` (stereo not drawn), the cell number change is -12.6%.
For `O=[N+]([O-])c1ccccc1S(=O)(=O)Nc1ccc(-c2ccc(N3CCCC3)nn2)cc1`, under setting [1], the AC50 was 0.92 µM [rising, partial curve].
For the compound `C=C(C)C1CC=C(C)/C(=N\NC(=O)CNc2ccccc2OC)C1` (stereo not drawn), the cell number change stood at 14.3%. Also, the AC50 under setting [1] was 0.259 µM [rising, full curve].
Regarding `COc1ccc2oc(C)c(C(=O)Cn3ccnc3)c2c1`, the AC50 under setting [1] was 0.58 µM [rising, single point].
Regarding `CC1CCCN(C2=C(NS(=O)(=O)c3ccc(Cl)cc3)C(=O)c3ccccc3C2=O)C1` (stereo not drawn), the cell number change is -82.7%. Moreover, the AC50 under setting [2] is 5.8 µM [falling, full curve]. Besides, under setting [1], the AC50 is 1.64 µM [falling, full curve].
On to `CCCN(C(=O)COc1ccc(C(C)=O)cc1OC)C1CCS(=O)(=O)C1` (stereo not drawn), for which the cell number change was 0.518%. The half-maximal activity concentration (AC50) under setting [1] is 2.59 µM [rising, single point].
For `CCCCc1ccc(NC(=S)NCCN2CCOCC2)cc1`, the cell number change was -52.5%.
For `COCCN1C(=O)N[C@@H](c2cccc(F)c2)C(C(=O)OC)=C1C`, the cell number change was 12.1%. For the same compound, the AC50 under setting [1] is 2.06 µM [falling, partial curve].
On to `CCN(CC(=O)NCc1cccs1)C(=O)c1cc(S(=O)(=O)N2CCCCC2)ccc1Cl`, for which the cell number change was determined as 4.73%. Besides, under setting [1], the AC50 is 20.6 µM [rising, single point].
Take `CCOC(=O)c1cnc(-n2nc(C)cc2C)nc1NNc1ncc(-c2ccccc2)cn1`: the cell number change is -27.5%. Under setting [2], the AC50 was 4.61 µM [falling, full curve, poor fit]. Further, the AC50 under setting [1] is 6.51 µM [falling, full curve].
`CCC(C)N1CCN(S(=O)(=O)c2ccc(NC(C)=O)cc2)CC1` (stereo not drawn): the AC50 under setting [1] was 0.146 µM [rising, single point].
With `O=c1[nH]c(SCc2ccc([N+](=O)[O-])cc2)nc2[nH]ncc12`, the cell number change worked out at 0.656%.
The same measure, in the same setting: next, `COc1cccc2sc3ccc(NCCC4CCCN4C)cc3c(=O)c12` (stereo not drawn): -7.49%.
For the compound `O=C(O)C1Nc2c(O)cc(Cl)c([N+](=O)[O-])c2C2C=CCC12` (stereo not drawn), the cell number change is -0.261%. For the same compound, the concentration at half-maximal activity (AC50) under setting [1] was 0.58 µM [falling, single point].
For `CCCN(CCC)S(=O)(=O)c1ccc(C(=O)Nc2ccc(S(=O)(=O)Nc3nnc(CC)s3)cc2)cc1`, the cell number change was found to be 22.5%. Moreover, the AC50 under setting [1] was 1.84 µM [falling, partial curve].
Regarding `c1ccc2c(Nc3nncs3)c3ccccc3nc2c1`, under setting [1], the AC50 was 16.4 µM [rising, partial curve, poor fit].
On to `Cc1ccc(S(=O)(=O)Nc2ccccc2C(=O)N2CCCC2)cc1`, for which the cell number change was -6.74%.
Consider `CC(C)c1ccc(NC(=S)N2CCN(C)CC2)cc1`, for which the cell number change is 12.7%. The AC50 under setting [2] is 0.116 µM [rising, full curve, poor fit]. The half-maximal activity concentration (AC50) under setting [1] is 29.1 µM [falling, single point].
On to `Nc1nnc(SCC(=O)NC2CCCCCC2)s1`, for which the cell number change was -6.5%.
On to `CC(=O)Nc1ccc(NC(=O)c2ccc(COc3ccc(C)cc3)o2)cc1`, for which the cell number change turned out to be 42.2%. Besides, the half-maximal activity concentration (AC50) under setting [2] is 29.1 µM [rising, single point].
Turning to `O=C(CNC(=O)c1ccco1)NC1CCCCCC1`, the cell number change was -13.3%.
Take `COc1cccc(CNC(=O)COC(=O)CCCNC(=O)c2ccc(Cl)cc2)c1`: the cell number change is -6.64%. Further, under setting [1], the AC50 is 32.6 µM [falling, partial curve, poor fit].
Consider `COc1ccccc1N1CCN(C(=O)c2cc(-c3ccc(C)cc3)on2)CC1`, for which the cell number change was -14.1%.
As to `CC1(C)CC(=O)C=C(NCCc2c[nH]c3ccccc23)C1`, the cell number change was determined as 30.4%. Further, under setting [1], the AC50 was 29.1 µM [rising, single point].
In the case of `COc1cc(CNc2ccc(N3CCN(C(C)=O)CC3)cc2)ccc1OCc1ccc(F)cc1`, the cell number change is -11.8%. Under setting [2], the AC50 is 3.66 µM [falling, single point].
With `COc1ccc(C(=O)N[C@H](C(=O)NCc2ccc(C)cc2)C(C)C)cc1`, the cell number change was found to be 23.9%. Further, under setting [1], the AC50 was 29.1 µM [falling, single point].
For the compound `O=C(Nc1cccc(S(=O)(=O)Nc2ccc(Cl)cc2)c1)c1cc2c(s1)CCCC2`, the cell number change is -27.9%. In addition, the concentration at half-maximal activity (AC50) under setting [1] was 32.6 µM [falling, single point].
As to `O=C(O)c1ccc(NC2=C(Cl)C(=O)c3ccccc3C2=O)cc1`, the cell number change was -63.5%. The AC50 under setting [2] is 23.1 µM [falling, partial curve]. Moreover, under setting [1], the AC50 was 5.17 µM [falling, partial curve, poor fit].
Regarding `CCOC(=O)[C@H]1[C@H]2COc3ccc(Cl)cc3[C@@H]2N2C(=O)CN(CC3CCCO3)C(=O)[C@@]12C` (stereo partly drawn), the cell number change was 10.5%. Also, under setting [1], the AC50 is 0.82 µM [rising, single point].
As for `CCNC(=O)Cc1c(OC)ccc2cc(Br)ccc12`, the cell number change is 12.2%.
With `COc1ccc(S(N)(=O)=O)cc1C(=O)N1CCCC1`, the cell number change was -46.3%. Besides, under setting [2], the AC50 is 29.1 µM [falling, single point].
On to `O=C(NCCc1ccccc1)C1CCC(Cn2c(=O)c3ccccc3n(Cc3cccnc3)c2=O)CC1` (stereo not drawn), for which the cell number change is -7.37%. Besides, the AC50 under setting [1] was 29.1 µM [rising, partial curve, poor fit].
As for `Cc1cc(C)nc(N/N=C/c2ccc([N+](=O)[O-])o2)n1`, the cell number change is -25.6%. In addition, the AC50 under setting [1] is 23.1 µM [falling, partial curve].
Turning to `Cc1[nH][nH]c(=O)c1C(c1ccc(-c2ccc(C(=O)O)cc2)o1)c1c(C)[nH][nH]c1=O`, the cell number change is -17.6%. In addition, the AC50 under setting [2] is 0.013 µM [falling, full curve, poor fit]. Under setting [1], the AC50 was 0.00651 µM [falling, full curve].
As to `O=C(NNS(=O)(=O)c1ccc(F)cc1)c1ccc([N+](=O)[O-])cc1Cl`, the cell number change is 34.5%. The AC50 under setting [1] was 6.51 µM [rising, single point].
Regarding `C/C=C/c1ccc(OC)c(OC(C)=O)c1`, the cell number change was 21.3%. In addition, under setting [1], the AC50 was 4.11 µM [rising, single point].
Take `CCOCCCNCC(=O)NCC1CCCCC1`: the cell number change was -20.7%. Further, the AC50 under setting [1] was 0.58 µM [falling, single point].
Regarding `COC(=O)N/N=C/c1ccc([N+](=O)[O-])s1`, the cell number change was -12.2%. Moreover, the AC50 under setting [1] is 18.4 µM [falling, single point].
Take `COc1cc2ncnc(NCc3ccccc3C)c2cc1OC`: the AC50 under setting [1] was 0.13 µM [falling, full curve, poor fit].
As for `CCn1c(NC(=O)/C=C/c2ccc(F)cc2)nc2ccccc21`, the cell number change turned out to be 7.62%.
The same measure, in the same setting: next, `COc1ccc(C(=O)Nc2ccc(NC(C)=O)cc2)cc1S(=O)(=O)N(C)Cc1ccccc1`: 2.74%.
On to `O=C(c1ccccc1-c1nc2ccccc2[nH]1)N1CCOCC1`, for which the cell number change was 13%. The AC50 under setting [1] was 23.1 µM [rising, single point].
On to `CN(C)c1ccc(C(=S)N2CCCCC2)cc1Br`, for which the cell number change was found to be 12.1%. Besides, under setting [1], the AC50 is 2.51 µM [falling, partial curve, poor fit].
In the case of `Cc1cc(C)nc(SCC(=O)Nc2cccc(S(=O)(=O)N(C)C)c2)n1`, the cell number change came out at 101%. The concentration at half-maximal activity (AC50) under setting [2] is 13 µM [rising, partial curve, poor fit].
For `COc1ccc(NC(=O)CCn2cccc2)cc1`, the cell number change is -0.234%. In addition, the AC50 under setting [1] is 0.206 µM [falling, full curve, poor fit].
As for `CC(C)COC(=O)CCNc1n[nH]c(=O)[nH]c1=O`, the cell number change was -209%. Moreover, under setting [2], the concentration at half-maximal activity (AC50) was 20.6 µM [falling, partial curve].
Turning to `CCN(CC)S(=O)(=O)c1ccc(N2CCOCC2)c(NC(=O)COc2ccc(Cl)cc2)c1`, the cell number change was determined as 31.2%. Further, the AC50 under setting [1] is 29.1 µM [rising, single point].
As to `Cc1ccc2nc(-c3ccc(NS(=O)(=O)c4ccccc4)cc3)sc2c1`, the cell number change is -34.7%. Moreover, under setting [2], the AC50 is 0.731 µM [falling, full curve]. For the same compound, the AC50 under setting [1] is 0.82 µM [falling, full curve, poor fit].
Take `CCCCOC(=O)C1=C(C)NC(=O)NC1c1cccc([N+](=O)[O-])c1` (stereo not drawn): the cell number change was -51.6%. Besides, under setting [2], the AC50 is 18.4 µM [falling, single point].
As for `COc1ccc(/C=C2\SC(=S)N(CCC(=O)N(CCO)Cc3ccccc3)C2=O)cc1OC`, the cell number change is -31%. Besides, the AC50 under setting [2] was 2.31 µM [falling, full curve]. Besides, under setting [1], the AC50 is 1.64 µM [falling, partial curve].
Take `CC(NC(=O)Cn1ccsc1=N)C12CC3CC(CC(C3)C1)C2` (stereo not drawn): the cell number change is 2.1%. Besides, the AC50 under setting [1] is 0.103 µM [rising, full curve, poor fit].
Consider `O=C(COc1ncnc2ccccc12)NC(=O)NCc1ccccc1`, for which the cell number change is 2.8%. Also, the AC50 under setting [1] was 18.4 µM [rising, partial curve].
Regarding `Cc1ccc(NC(=O)CN(C)C(=O)COC(=O)COc2ccc(C#N)cc2)cc1`, the cell number change was determined as 1.69%. For the same compound, the AC50 under setting [1] was 29.1 µM [falling, single point].
In the case of `COc1cc(/C=C2/CCC/C(=C\c3cc(O)c(OC)c(Cl)c3)C2=O)cc(Cl)c1O`, the cell number change was -42.1%. The AC50 under setting [2] is 29.1 µM [falling, single point]. In addition, the AC50 under setting [1] is 20.6 µM [falling, partial curve, poor fit].
